Assay results reported in the supplement of paper PMC10849652.
The list shows a part of the results.

Chains of the proteins cited; added tags and fusions are not shown. Lines headed by an entry give the natural chain unless they say otherwise; changes in a name come on top.
UniProt P12109: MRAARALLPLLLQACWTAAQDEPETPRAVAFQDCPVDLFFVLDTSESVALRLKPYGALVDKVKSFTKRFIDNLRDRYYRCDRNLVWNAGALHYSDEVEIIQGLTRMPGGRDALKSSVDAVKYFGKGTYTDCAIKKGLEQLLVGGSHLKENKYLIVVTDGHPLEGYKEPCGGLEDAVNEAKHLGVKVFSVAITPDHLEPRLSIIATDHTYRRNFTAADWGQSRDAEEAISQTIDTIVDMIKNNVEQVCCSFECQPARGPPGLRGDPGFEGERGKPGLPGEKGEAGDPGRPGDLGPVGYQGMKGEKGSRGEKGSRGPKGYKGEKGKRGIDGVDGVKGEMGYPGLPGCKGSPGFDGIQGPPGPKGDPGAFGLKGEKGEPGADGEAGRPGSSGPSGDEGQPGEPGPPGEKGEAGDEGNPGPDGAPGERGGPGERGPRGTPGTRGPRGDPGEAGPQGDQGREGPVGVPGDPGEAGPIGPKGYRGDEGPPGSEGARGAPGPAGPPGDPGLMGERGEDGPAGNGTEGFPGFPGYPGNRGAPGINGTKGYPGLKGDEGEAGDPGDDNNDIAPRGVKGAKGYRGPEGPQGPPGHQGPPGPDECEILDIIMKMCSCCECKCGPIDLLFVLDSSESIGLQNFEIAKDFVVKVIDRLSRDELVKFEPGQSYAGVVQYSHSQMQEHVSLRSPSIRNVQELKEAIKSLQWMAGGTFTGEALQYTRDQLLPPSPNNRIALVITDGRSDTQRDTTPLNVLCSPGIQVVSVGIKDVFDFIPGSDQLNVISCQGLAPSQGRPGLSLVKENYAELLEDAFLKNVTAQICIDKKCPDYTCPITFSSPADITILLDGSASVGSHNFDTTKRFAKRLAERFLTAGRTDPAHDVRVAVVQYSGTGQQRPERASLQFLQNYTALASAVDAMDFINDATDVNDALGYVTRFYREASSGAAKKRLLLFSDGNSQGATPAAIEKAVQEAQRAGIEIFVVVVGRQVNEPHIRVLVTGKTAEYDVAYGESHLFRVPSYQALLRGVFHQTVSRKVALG
UniProt Q86VX2, whole entry, looked up: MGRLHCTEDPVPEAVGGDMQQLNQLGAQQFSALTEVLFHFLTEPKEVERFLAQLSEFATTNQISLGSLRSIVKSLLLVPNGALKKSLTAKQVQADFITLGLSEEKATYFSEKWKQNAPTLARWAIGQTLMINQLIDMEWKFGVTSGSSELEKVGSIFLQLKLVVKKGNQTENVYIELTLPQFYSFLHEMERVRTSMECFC
UniProt Q96HD1: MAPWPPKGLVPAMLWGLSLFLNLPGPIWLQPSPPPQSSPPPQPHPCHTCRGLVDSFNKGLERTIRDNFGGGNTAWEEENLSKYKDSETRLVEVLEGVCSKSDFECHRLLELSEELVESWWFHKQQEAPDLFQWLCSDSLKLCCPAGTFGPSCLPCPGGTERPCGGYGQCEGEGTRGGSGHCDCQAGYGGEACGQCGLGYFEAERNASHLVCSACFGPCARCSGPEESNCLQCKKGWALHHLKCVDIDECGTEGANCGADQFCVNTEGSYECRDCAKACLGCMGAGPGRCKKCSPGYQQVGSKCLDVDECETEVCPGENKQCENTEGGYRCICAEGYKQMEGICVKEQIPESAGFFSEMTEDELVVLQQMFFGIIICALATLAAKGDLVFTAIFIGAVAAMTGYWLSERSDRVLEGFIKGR
UniProt Q9P021, whole entry, looked up: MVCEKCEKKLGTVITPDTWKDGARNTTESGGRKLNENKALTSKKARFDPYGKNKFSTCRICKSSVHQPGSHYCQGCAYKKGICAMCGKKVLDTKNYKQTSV
UniProt Q99829: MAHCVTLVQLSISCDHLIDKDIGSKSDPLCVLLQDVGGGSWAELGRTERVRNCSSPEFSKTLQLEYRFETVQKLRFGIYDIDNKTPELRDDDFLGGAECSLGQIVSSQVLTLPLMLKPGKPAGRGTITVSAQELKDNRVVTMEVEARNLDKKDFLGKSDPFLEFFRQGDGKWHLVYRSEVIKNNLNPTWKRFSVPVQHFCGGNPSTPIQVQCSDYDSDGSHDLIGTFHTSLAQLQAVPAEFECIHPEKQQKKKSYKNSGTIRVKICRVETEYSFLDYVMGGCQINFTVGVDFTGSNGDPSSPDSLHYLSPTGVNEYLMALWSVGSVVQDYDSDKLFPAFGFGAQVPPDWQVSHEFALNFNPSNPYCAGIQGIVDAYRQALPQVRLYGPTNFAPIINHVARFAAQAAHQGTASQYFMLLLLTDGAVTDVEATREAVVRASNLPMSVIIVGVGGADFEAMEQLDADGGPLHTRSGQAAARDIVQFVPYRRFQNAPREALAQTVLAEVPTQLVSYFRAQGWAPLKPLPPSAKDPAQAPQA
UniProt Q9NQ92: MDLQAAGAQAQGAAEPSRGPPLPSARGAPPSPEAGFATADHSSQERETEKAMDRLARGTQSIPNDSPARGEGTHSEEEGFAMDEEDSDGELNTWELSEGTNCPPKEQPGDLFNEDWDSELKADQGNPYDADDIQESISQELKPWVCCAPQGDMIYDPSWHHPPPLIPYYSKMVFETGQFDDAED
UniProt A4D126: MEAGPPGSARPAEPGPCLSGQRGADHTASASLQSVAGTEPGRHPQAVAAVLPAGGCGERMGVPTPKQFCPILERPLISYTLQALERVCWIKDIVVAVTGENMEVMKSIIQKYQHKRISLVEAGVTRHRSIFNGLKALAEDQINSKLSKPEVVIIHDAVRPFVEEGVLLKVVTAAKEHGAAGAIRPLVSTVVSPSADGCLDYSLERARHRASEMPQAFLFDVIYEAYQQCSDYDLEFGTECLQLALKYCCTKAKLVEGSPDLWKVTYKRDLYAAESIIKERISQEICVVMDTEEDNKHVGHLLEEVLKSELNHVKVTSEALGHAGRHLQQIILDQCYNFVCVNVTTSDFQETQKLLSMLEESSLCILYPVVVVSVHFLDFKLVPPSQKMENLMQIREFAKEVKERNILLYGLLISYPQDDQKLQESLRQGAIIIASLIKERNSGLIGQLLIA
UniProt P09669, whole entry, looked up: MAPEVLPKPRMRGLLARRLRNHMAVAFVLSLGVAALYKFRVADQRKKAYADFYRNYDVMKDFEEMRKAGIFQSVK
UniProt Q9UBW8: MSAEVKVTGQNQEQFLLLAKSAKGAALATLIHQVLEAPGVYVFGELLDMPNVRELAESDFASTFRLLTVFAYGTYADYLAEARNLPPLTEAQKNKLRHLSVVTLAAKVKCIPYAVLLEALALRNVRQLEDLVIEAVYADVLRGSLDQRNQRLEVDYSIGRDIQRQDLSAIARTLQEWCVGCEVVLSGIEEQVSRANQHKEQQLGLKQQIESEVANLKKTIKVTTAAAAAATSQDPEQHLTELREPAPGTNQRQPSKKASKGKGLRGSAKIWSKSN
UniProt Q9Y2Z9: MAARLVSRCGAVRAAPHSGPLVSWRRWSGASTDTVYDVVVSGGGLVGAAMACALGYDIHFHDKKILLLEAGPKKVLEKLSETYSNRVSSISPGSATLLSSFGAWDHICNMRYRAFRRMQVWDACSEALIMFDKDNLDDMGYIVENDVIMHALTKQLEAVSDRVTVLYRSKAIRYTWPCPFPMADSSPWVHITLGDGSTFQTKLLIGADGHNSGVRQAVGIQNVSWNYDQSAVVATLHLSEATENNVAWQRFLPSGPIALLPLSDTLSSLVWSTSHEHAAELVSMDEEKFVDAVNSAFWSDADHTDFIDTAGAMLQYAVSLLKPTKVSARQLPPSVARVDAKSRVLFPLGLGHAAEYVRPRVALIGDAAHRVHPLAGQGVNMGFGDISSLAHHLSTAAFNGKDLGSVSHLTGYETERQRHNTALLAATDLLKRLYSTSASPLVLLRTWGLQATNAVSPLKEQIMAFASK
UniProt Q9UBF2: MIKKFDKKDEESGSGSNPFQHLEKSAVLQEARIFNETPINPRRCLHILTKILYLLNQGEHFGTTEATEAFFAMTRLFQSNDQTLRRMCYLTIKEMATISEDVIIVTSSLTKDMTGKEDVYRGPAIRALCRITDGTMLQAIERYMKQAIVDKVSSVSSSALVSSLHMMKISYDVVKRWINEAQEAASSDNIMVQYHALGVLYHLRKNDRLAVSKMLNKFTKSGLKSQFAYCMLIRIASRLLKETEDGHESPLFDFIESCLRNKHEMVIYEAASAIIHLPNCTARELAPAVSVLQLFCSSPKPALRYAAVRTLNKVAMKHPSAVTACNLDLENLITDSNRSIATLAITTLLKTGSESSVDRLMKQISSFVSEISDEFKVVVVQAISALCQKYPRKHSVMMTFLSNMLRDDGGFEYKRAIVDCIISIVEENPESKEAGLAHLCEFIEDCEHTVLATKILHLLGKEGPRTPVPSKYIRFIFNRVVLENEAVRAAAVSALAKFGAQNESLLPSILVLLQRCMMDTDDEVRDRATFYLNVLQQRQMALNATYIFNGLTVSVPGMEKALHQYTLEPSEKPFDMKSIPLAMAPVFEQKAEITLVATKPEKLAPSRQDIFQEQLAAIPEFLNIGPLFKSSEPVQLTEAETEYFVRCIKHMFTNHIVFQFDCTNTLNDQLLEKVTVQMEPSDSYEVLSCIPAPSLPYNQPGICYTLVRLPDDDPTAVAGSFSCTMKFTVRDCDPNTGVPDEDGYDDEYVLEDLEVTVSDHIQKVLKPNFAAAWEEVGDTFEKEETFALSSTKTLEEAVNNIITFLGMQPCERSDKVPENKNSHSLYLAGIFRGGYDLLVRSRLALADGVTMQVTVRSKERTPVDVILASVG
UniProt Q9GZQ3, whole entry, looked up: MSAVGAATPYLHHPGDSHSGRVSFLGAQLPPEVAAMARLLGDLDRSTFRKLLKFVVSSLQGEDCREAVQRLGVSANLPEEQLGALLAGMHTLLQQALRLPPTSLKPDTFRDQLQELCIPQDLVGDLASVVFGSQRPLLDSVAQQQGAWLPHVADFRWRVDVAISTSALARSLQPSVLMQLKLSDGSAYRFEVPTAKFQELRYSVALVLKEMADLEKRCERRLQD
UniProt Q9Y6M4: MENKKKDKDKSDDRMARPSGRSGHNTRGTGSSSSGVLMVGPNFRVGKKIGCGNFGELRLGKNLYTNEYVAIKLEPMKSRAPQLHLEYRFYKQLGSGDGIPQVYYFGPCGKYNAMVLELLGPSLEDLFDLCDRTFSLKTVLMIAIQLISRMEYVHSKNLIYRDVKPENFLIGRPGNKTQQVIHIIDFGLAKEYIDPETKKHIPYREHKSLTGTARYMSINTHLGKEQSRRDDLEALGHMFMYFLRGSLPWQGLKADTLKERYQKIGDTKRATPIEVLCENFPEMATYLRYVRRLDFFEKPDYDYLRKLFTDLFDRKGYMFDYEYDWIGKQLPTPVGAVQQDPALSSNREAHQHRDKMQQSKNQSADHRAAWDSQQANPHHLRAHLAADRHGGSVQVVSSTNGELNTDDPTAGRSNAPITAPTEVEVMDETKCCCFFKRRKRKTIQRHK
UniProt P61923: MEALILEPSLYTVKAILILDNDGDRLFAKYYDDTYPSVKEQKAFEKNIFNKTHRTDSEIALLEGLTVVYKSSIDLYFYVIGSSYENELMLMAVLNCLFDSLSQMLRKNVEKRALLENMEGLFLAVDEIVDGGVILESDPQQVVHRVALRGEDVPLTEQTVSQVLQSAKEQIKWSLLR
UniProt P53618: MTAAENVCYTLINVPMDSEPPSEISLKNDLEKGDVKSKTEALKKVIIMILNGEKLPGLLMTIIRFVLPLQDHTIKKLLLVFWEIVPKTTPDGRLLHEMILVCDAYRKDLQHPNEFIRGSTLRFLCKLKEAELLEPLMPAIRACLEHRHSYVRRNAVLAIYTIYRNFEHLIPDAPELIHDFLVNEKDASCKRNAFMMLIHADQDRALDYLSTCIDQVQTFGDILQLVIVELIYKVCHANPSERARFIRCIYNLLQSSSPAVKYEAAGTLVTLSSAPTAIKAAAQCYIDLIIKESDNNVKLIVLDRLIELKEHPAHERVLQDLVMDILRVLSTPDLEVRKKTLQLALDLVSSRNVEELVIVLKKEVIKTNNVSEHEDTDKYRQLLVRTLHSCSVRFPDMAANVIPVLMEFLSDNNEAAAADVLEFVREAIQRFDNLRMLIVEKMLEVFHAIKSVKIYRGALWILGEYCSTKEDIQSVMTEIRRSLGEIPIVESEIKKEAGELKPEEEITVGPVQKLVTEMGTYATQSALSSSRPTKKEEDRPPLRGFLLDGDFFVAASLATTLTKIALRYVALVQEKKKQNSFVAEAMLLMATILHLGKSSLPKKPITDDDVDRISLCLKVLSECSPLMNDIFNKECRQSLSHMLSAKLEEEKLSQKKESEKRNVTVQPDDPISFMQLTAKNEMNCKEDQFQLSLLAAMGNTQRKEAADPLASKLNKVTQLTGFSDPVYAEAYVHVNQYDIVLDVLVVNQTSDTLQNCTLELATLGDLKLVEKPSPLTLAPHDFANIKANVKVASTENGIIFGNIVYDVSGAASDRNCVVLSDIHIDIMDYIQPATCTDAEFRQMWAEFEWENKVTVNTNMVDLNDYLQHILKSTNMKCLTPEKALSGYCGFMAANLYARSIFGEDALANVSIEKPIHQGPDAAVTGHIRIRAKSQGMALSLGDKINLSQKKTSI

What was measured:
Assay in all cases: log2 fold change, soluble protein after heating vs DMSO (PISA); higher = thermal stabilisation; K562 cells, 10 uM, 30 min; active = over 0.2 and 3.5 SD of the protein, either way, in both replicates (recomputed)
saracatinib = compound: CN1CCN(CCOc2cc(OC3CCOCC3)c3c(Nc4c(Cl)ccc5c4OCO5)ncnc3c2)CC1 [saracatinib]
Summary of the method: (§1)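 Quantification of soluble protein used TMTpro 16plex LC-MS/MS, with channel sums equalised. Samples were the supernatant after 21,000xg for 90 min of pooled aliquots from K562 cells (2×10^6 cells/mL) treated with 10 μM compound for 30 min, heated for 3 min over 48°C-58°C, and extracted in PBS with 0.5% NP-40 at 4°C. Values, from duplicates, describe thermal stability against control samples on a log2 fold-change scale.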

sotrastaurin = compound: CN1CCN(c2nc(C3=C(c4c[nH]c5ccccc45)C(=O)NC3=O)c3ccccc3n2)CC1 [sotrastaurin]
Summary of the method: as §1

alvocidib = compound: CN1CC[C@H](c2c(O)cc(O)c3c(=O)cc(-c4ccccc4Cl)oc23)[C@H](O)C1 [alvocidib]
Summary of the method: as §1

Tubastatin A = compound: CN1CCc2c(c3ccccc3n2Cc2ccc(C(=O)NO)cc2)C1 [Tubastatin A]
Summary of the method: as §1

[1] = compound: CNC(=O)C1=CC=CC=C1NC2=NC(=NC=C2Cl)NC3=C(C=C(C=C3)N4CCOCC4)OC
Summary of the method: as §1

defactinib = compound: CNC(=O)c1ccc(Nc2ncc(C(F)(F)F)c(NCc3nccnc3N(C)S(C)(=O)=O)n2)cc1 [defactinib]
Summary of the method: as §1

rucaparib = compound: CNCc1ccc(-c2[nH]c3cc(F)cc4c3c2CCNC4=O)cc1 [rucaparib]
Summary of the method: as §1

[2] = compound: CNc1nc(-c2ccc3c(N)n[nH]c3c2)cc(N2C[C@@H](C(=O)NC3CCCCC3)CC[C@H]2C)n1
Summary of the method: as §1

encorafenib = compound: COC(=O)N[C@@H](C)CNc1nccc(-c2cn(C(C)C)nc2-c2cc(Cl)cc(NS(C)(=O)=O)c2F)n1 [encorafenib]
Summary of the method: as §1

[3] = compound: COC(=O)[C@H](CCSC)NC(=O)C1=C(C=C(C=C1)NC[C@H](CS)N)C2=CC=CC=C2
Summary of the method: as §1

[4] = compound: COC1=CC=C(C=C1)CN2C=CC3=C2C=C(C=C3)C(=O)NO
Summary of the method: as §1

filanesib = compound: CON(C)C(=O)N1N=C(c2cc(F)ccc2F)S[C@@]1(CCCN)c1ccccc1 [filanesib]
Summary of the method: as §1

zotarolimus = compound: CO[C@H]1C[C@@H]2CC[C@@H](C)[C@@](O)(O2)C(=O)C(=O)N2CCCC[C@H]2C(=O)O[C@H]([C@H](C)C[C@@H]2CC[C@H](n3cnnn3)[C@H](OC)C2)CC(=O)[C@H](C)/C=C(\C)[C@@H](O)[C@@H](OC)C(=O)[C@H](C)C[C@H](C)/C=C/C=C/C=C/1C [zotarolimus]
Summary of the method: as §1

idasanutlin = compound: COc1cc(C(=O)O)ccc1NC(=O)[C@@H]1N[C@@H](CC(C)(C)C)[C@](C#N)(c2ccc(Cl)cc2F)[C@H]1c1cccc(Cl)c1F [idasanutlin]
Summary of the method: as §1

alisertib = compound: COc1cc(Nc2ncc3c(n2)-c2ccc(Cl)cc2C(c2c(F)cccc2OC)=NC3)ccc1C(=O)O [alisertib]
Summary of the method: as §1

[5] = compound: COc1cc2nc(-c3cc(F)ccc3O)nc(N[C@@H]3CNC[C@H]3C(C)(C)O)c2cc1OC
Summary of the method: as §1

gefitinib = compound: COc1cc2ncnc(Nc3ccc(F)c(Cl)c3)c2cc1OCCCN1CCOCC1 [gefitinib]
Summary of the method: as §1

[6] = compound: COc1cccc2cc(-c3nc([C@H]4CC[C@H](C(=O)O)CC4)n4ncnc(N)c34)[nH]c12
Summary of the method: as §1

lapatinib = compound: CS(=O)(=O)CCNCc1ccc(-c2ccc3ncnc(Nc4ccc(OCc5cccc(F)c5)c(Cl)c4)c3c2)o1 [lapatinib]
Summary of the method: as §1

pictilisib = compound: CS(=O)(=O)N1CCN(Cc2cc3nc(-c4cccc5[nH]ncc45)nc(N4CCOCC4)c3s2)CC1 [pictilisib]
Summary of the method: as §1

Measured: log2 fold change

COL6A1 (UniProt P12109)
inactive: saracatinib 0.069 | sotrastaurin 0.242 | alvocidib 0.035 | Tubastatin A 0 | [1] 0.067 | defactinib -0.04 | rucaparib -0.117 | [2] 0.006 | encorafenib -0.005 | [3] 0.269 | [4] 0.008 | filanesib 0.052 | zotarolimus -0.197 | idasanutlin 0.077 | alisertib -0.058 | [5] -0.113 | gefitinib 0.048 | [6] 0.293 | lapatinib -0.019 | pictilisib -0.098

COMMD7 (UniProt Q86VX2)
inactive: saracatinib 0.055 | sotrastaurin 0.008 | alvocidib -0.075 | Tubastatin A -0.002 | [1] -0.055 | defactinib -0.008 | rucaparib 0 | [2] -0.022 | encorafenib 0.022 | [3] -0.005 | [4] 0.018 | filanesib 0.07 | zotarolimus 0.016 | idasanutlin -0.003 | alisertib -0.019 | [5] 0.026 | gefitinib -0.053 | [6] 0.035 | lapatinib 0.005 | pictilisib 0.053

CRELD1 isoform 2 (UniProt Q96HD1)
inactive: saracatinib 0.038 | sotrastaurin 0.014 | alvocidib -0.003 | Tubastatin A -0.025 | [1] -0.046 | defactinib 0.012 | rucaparib -0.134 | [2] -0.053 | encorafenib 0.099 | [3] 0.082 | [4] -0.136 | filanesib -0.026 | zotarolimus -0.099 | idasanutlin 0.016 | alisertib 0.505 | [5] -0.027 | gefitinib 0.381 | [6] 0.157 | lapatinib -0.006 | pictilisib 0.113

CRIPT (UniProt Q9P021)
inactive: saracatinib 0.035 | sotrastaurin 0.013 | alvocidib 0.079 | Tubastatin A -0.033 | [1] -0.038 | defactinib 0.009 | rucaparib 0.149 | [2] -0.04 | encorafenib -0.001 | [3] -0.028 | [4] -0.084 | filanesib -0.111 | zotarolimus 0.043 | idasanutlin -0.031 | alisertib -0.003 | [5] -0.033 | gefitinib -0.089 | [6] -0.01 | lapatinib -0.042 | pictilisib 0.042

CPNE1 (UniProt Q99829)
inactive: saracatinib 0.08 | sotrastaurin 0.006 | alvocidib 0.001 | Tubastatin A -0.025 | [1] -0.01 | defactinib -0.017 | rucaparib -0.003 | [2] -0.028 | encorafenib 0.017 | [3] 0.05 | [4] -0.011 | filanesib -0.021 | zotarolimus 0.022 | idasanutlin -0.013 | alisertib 0.036 | [5] 0.05 | gefitinib 0.007 | [6] 0.031 | lapatinib -0.003 | pictilisib -0.038

COPRS (UniProt Q9NQ92)
inactive: saracatinib 0.121 | sotrastaurin 0.053 | alvocidib 0.029 | Tubastatin A 0.041 | [1] -0.046 | defactinib 0.018 | rucaparib -0.061 | [2] -0.017 | encorafenib -0.065 | [3] -0.016 | [4] -0.008 | filanesib 0.023 | zotarolimus -0.012 | idasanutlin 0.001 | alisertib -0.001 | [5] -0.001 | gefitinib 0.024 | [6] 0.067 | lapatinib -0.056 | pictilisib -0.044

CRPPA (UniProt A4D126)
inactive: saracatinib 0.004 | sotrastaurin 0.023 | alvocidib -0.051 | Tubastatin A 0.013 | [1] -0.02 | defactinib -0.03 | rucaparib -0.01 | [2] -0.02 | encorafenib -0.045 | [3] -0.004 | [4] -0.074 | filanesib -0.009 | zotarolimus 0.03 | idasanutlin -0.065 | alisertib -0.077 | [5] 0.012 | gefitinib 0.01 | [6] 0.006 | lapatinib 0.005 | pictilisib 0.041

COX6C (UniProt P09669)
inactive: saracatinib -0.024 | sotrastaurin 0.037 | alvocidib -0.017 | Tubastatin A -0.017 | [1] 0.018 | defactinib 0.017 | rucaparib -0.149 | [2] -0.044 | encorafenib -0.087 | [3] 0.002 | [4] 0.09 | filanesib -0.036 | zotarolimus -0.032 | idasanutlin 0 | alisertib -0.08 | [5] 0.036 | gefitinib -0.035 | [6] 0.061 | lapatinib -0.048 | pictilisib 0.038

COPS7A (UniProt Q9UBW8)
inactive: saracatinib 0.026 | sotrastaurin 0.007 | alvocidib 0.009 | Tubastatin A 0.003 | [1] -0.019 | defactinib -0.033 | rucaparib -0.042 | [2] -0.047 | encorafenib -0.007 | [3] 0.031 | [4] 0.037 | filanesib -0.049 | zotarolimus -0.026 | idasanutlin -0.005 | alisertib 0.008 | [5] 0.021 | gefitinib 0.007 | [6] 0.012 | lapatinib 0.016 | pictilisib 0.07

COQ6 (UniProt Q9Y2Z9)
inactive: saracatinib -0.003 | sotrastaurin 0.076 | alvocidib -0.047 | Tubastatin A 0 | [1] 0.02 | defactinib -0.003 | rucaparib 0.012 | [2] 0.044 | encorafenib 0.005 | [3] -0.017 | [4] 0.082 | filanesib -0.055 | zotarolimus -0.009 | idasanutlin 0.009 | alisertib -0.067 | [5] -0.022 | gefitinib 0.024 | [6] 0.01 | lapatinib 0.139 | pictilisib -0.014

COPG2 (UniProt Q9UBF2)
inactive: saracatinib 0.001 | sotrastaurin -0.031 | alvocidib -0.048 | Tubastatin A 0.027 | [1] 0.018 | defactinib -0.09 | rucaparib -0.036 | [2] 0.026 | encorafenib 0.023 | [3] -0.037 | [4] 0.005 | filanesib -0.009 | zotarolimus 0.046 | idasanutlin -0.076 | alisertib -0.032 | [5] 0.132 | gefitinib 0.033 | [6] -0.014 | lapatinib -0.009 | pictilisib 0.01

COMMD5 (UniProt Q9GZQ3)
inactive: saracatinib -0.003 | sotrastaurin -0.005 | alvocidib -0.05 | Tubastatin A 0.041 | [1] 0.074 | defactinib 0 | rucaparib -0.075 | [2] -0.013 | encorafenib 0.011 | [3] 0.015 | [4] 0.068 | filanesib 0.028 | zotarolimus 0.022 | idasanutlin -0.132 | alisertib -0.012 | [5] -0.007 | gefitinib -0.013 | [6] 0.006 | lapatinib 0.075 | pictilisib -0.081

CSNK1G3 (UniProt Q9Y6M4)
inactive: saracatinib -0.06 | sotrastaurin -0.131 | alvocidib 0.151 | Tubastatin A 0.08 | [1] 0.004 | defactinib 0.065 | rucaparib 0.102 | [2] -0.055 | encorafenib 0.131 | [3] -0.006 | [4] 0.117 | filanesib -0.084 | zotarolimus -0.039 | idasanutlin 0.067 | alisertib -0.115 | [5] -0.093 | gefitinib -0.016 | [6] -0.088 | lapatinib 0.024 | pictilisib 0.035

COPZ1 isoform 4 (UniProt P61923)
inactive: saracatinib -0.042 | sotrastaurin 0.086 | alvocidib -0.056 | Tubastatin A 0.082 | [1] 0.089 | defactinib 0.017 | rucaparib -0.063 | [2] -0.004 | encorafenib 0.007 | [3] 0.028 | [4] -0.16 | filanesib 0.034 | zotarolimus 0.099 | idasanutlin -0.061 | alisertib 0.002 | [5] -0.019 | gefitinib 0.052 | [6] -0.002 | lapatinib -0.055 | pictilisib -0.084

COPB1 (UniProt P53618)
inactive: saracatinib 0.014 | sotrastaurin -0.06 | alvocidib -0.049 | Tubastatin A -0.002 | [1] 0.01 | defactinib -0.042 | rucaparib -0.019 | [2] 0.007 | encorafenib 0.076 | [3] -0.033 | [4] 0.016 | filanesib -0.031 | zotarolimus 0.034 | idasanutlin -0.04 | alisertib -0.068 | [5] 0.064 | gefitinib 0.013 | [6] -0.009 | lapatinib 0.023 | pictilisib 0.027

2 entries drawn at random from those above, as already listed:
COMMD5 (UniProt Q9GZQ3)
inactive: saracatinib -0.003 | sotrastaurin -0.005 | alvocidib -0.05 | Tubastatin A 0.041 | [1] 0.074 | defactinib 0 | rucaparib -0.075 | [2] -0.013 | encorafenib 0.011 | [3] 0.015 | [4] 0.068 | filanesib 0.028 | zotarolimus 0.022 | idasanutlin -0.132 | alisertib -0.012 | [5] -0.007 | gefitinib -0.013 | [6] 0.006 | lapatinib 0.075 | pictilisib -0.081

CSNK1G3 (UniProt Q9Y6M4)
inactive: saracatinib -0.06 | sotrastaurin -0.131 | alvocidib 0.151 | Tubastatin A 0.08 | [1] 0.004 | defactinib 0.065 | rucaparib 0.102 | [2] -0.055 | encorafenib 0.131 | [3] -0.006 | [4] 0.117 | filanesib -0.084 | zotarolimus -0.039 | idasanutlin 0.067 | alisertib -0.115 | [5] -0.093 | gefitinib -0.016 | [6] -0.088 | lapatinib 0.024 | pictilisib 0.035

(list continues)

CROCC (UniProt Q5TZA2)
inactive: saracatinib -0.018 | sotrastaurin -0.007 | alvocidib -0.062 | Tubastatin A -0.042 | [1] 0.097 | defactinib 0.032 | rucaparib -0.154 | [2] -0.033 | encorafenib -0.005 | [3] -0.018 | [4] -0.091 | filanesib -0.132 | zotarolimus 0.037 | idasanutlin -0.015 | alisertib -0.001 | [5] 0.156 | gefitinib 0.078 | [6] -0.061 | lapatinib -0.038 | pictilisib 0.022
